We go through 24 targets from the supplement of paper PMC10849652.

By UniProt entry, the sequences of proteins in these tests, tags left out. Where a name states a change or a piece, a line headed by the entry shows the natural chain unless it says otherwise.
UniProt P50213: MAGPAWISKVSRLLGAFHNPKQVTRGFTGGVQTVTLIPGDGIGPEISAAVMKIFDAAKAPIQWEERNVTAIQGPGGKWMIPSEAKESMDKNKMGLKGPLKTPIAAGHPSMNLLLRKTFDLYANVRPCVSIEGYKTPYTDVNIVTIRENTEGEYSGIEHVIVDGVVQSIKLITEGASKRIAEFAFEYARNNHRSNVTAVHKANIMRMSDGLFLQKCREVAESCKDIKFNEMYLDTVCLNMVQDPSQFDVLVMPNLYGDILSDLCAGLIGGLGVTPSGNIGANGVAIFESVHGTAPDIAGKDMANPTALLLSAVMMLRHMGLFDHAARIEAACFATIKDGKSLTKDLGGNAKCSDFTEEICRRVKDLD
UniProt O75054: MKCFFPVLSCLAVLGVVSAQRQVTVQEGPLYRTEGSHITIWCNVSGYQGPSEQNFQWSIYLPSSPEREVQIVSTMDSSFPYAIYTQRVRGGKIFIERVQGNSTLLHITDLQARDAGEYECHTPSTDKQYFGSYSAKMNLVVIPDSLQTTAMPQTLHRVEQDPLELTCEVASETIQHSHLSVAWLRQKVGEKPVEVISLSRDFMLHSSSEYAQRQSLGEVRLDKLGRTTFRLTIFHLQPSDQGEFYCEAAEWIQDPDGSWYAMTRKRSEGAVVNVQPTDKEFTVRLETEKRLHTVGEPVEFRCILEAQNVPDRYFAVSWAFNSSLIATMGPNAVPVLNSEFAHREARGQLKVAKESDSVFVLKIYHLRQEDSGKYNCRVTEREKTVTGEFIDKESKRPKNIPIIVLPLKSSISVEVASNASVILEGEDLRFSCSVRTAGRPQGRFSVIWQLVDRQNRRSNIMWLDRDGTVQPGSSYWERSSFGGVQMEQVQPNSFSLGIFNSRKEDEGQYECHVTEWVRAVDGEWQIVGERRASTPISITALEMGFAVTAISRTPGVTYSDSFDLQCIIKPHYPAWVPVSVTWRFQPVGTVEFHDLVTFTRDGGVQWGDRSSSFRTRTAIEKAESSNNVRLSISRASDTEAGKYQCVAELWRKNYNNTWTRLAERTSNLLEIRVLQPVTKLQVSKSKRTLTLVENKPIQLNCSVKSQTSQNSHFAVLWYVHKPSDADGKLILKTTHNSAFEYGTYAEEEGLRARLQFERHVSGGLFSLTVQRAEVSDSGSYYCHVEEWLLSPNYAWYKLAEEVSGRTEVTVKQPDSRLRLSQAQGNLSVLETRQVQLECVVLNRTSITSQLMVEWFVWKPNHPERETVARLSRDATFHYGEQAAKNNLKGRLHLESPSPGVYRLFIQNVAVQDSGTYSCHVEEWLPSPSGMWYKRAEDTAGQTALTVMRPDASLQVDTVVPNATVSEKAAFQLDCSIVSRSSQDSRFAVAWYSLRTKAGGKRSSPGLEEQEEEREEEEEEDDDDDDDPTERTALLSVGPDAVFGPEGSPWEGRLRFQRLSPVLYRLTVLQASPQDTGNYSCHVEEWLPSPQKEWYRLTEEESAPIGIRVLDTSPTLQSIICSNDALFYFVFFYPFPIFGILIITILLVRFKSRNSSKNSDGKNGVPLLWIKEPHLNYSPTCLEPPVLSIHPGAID
UniProt Q9H0C8: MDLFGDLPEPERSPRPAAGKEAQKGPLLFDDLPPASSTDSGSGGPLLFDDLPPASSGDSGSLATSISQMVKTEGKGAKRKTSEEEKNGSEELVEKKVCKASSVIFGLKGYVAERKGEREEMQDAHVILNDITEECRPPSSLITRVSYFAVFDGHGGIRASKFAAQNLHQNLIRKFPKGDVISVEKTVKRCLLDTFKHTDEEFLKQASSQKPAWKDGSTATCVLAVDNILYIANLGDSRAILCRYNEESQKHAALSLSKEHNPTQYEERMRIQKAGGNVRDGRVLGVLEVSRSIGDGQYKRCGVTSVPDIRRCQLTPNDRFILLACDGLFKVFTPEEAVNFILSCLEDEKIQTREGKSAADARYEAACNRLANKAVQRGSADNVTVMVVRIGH
UniProt O43837: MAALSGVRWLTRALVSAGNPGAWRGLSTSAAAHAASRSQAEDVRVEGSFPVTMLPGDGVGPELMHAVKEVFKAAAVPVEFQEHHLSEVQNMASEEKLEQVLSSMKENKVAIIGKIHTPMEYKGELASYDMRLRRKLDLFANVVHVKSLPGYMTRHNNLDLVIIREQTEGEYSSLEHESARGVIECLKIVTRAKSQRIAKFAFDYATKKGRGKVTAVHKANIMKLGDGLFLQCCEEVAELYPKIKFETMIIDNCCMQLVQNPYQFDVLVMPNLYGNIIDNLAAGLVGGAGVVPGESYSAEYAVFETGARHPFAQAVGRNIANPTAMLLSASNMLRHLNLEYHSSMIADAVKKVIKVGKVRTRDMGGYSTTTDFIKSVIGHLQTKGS
UniProt Q969P0: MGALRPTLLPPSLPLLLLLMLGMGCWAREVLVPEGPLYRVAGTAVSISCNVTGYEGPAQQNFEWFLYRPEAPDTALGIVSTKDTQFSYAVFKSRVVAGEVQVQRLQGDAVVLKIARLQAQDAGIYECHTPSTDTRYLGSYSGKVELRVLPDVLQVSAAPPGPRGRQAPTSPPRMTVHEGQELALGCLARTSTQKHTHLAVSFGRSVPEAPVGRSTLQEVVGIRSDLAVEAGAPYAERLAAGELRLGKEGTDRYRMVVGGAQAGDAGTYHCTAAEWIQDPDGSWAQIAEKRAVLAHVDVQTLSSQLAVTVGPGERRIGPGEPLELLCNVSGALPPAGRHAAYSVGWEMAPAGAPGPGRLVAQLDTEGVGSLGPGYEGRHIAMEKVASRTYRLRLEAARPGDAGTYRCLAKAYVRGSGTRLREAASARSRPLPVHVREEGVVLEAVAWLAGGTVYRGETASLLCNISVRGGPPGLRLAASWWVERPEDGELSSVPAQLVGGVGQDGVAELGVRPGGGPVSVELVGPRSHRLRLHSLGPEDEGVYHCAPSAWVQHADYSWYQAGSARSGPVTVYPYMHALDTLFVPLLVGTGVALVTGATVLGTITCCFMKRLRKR
UniProt A1L0T0: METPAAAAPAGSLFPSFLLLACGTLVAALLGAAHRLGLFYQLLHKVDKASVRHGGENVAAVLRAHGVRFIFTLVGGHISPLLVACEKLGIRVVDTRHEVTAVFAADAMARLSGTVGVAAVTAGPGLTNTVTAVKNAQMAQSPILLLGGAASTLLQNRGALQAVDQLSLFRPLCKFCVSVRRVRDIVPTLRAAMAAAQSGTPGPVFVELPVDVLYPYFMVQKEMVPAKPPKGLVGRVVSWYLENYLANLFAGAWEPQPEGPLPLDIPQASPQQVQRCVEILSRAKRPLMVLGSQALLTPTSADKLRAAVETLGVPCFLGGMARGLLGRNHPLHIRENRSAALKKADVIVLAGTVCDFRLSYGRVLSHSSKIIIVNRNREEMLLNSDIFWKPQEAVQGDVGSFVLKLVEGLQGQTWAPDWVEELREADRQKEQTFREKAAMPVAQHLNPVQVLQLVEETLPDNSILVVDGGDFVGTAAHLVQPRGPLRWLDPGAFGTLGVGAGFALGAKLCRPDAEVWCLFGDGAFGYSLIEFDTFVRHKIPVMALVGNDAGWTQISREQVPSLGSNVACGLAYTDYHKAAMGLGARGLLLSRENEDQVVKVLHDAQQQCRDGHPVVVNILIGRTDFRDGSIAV
UniProt Q12905: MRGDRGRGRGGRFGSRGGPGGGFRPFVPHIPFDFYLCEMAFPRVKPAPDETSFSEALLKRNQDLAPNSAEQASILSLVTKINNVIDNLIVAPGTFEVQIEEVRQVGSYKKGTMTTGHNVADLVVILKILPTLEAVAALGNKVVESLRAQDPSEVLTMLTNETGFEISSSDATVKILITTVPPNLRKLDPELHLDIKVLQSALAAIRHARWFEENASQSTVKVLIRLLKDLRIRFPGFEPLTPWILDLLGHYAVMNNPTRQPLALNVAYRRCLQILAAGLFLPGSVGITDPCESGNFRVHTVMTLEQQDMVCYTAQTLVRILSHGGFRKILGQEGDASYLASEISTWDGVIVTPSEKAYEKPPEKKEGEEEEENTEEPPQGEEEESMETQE
UniProt P29218: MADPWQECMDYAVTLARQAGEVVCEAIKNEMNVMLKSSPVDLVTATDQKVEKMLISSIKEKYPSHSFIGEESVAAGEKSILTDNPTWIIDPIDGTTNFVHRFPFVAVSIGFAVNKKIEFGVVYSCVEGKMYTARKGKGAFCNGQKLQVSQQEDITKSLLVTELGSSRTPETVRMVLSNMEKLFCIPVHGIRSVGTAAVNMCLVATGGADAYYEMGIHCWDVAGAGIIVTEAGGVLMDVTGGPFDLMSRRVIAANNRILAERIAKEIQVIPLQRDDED
UniProt P11142, whole entry, looked up: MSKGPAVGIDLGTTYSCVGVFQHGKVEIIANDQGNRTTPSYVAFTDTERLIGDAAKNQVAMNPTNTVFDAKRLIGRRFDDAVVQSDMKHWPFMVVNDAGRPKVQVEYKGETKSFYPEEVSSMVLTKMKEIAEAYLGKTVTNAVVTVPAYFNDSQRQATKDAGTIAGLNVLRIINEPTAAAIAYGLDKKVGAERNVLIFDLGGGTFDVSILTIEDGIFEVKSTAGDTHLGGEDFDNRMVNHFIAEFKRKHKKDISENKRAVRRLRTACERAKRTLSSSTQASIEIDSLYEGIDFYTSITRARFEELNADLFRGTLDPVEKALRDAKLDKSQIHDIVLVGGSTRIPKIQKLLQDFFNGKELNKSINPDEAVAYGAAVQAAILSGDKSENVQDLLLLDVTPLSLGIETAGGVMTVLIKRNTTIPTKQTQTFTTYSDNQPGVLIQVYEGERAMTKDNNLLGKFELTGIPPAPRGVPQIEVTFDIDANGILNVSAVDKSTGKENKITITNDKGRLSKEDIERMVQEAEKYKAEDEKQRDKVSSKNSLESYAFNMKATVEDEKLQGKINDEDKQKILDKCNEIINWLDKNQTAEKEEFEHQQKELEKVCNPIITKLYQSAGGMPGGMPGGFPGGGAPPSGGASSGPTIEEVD
UniProt Q08334: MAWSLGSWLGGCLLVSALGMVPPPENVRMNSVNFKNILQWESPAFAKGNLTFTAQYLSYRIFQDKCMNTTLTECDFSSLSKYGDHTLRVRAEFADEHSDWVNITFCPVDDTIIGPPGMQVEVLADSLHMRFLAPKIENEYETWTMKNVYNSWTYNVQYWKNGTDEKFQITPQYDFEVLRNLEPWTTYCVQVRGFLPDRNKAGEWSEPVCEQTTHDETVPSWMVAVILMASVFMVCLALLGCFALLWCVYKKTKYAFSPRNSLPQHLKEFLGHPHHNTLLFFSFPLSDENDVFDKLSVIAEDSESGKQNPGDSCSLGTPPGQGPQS
UniProt P51553: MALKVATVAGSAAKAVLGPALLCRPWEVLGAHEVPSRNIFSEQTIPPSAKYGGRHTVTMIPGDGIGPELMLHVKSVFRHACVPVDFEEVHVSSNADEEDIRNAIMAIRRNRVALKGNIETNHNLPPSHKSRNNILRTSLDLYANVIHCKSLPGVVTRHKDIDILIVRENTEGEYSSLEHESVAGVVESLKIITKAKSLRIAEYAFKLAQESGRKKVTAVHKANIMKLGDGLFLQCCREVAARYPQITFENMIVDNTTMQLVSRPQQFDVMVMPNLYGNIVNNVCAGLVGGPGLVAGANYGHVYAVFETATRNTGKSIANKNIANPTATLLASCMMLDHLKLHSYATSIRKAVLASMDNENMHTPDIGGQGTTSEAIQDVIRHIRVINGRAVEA
UniProt Q9UMF0: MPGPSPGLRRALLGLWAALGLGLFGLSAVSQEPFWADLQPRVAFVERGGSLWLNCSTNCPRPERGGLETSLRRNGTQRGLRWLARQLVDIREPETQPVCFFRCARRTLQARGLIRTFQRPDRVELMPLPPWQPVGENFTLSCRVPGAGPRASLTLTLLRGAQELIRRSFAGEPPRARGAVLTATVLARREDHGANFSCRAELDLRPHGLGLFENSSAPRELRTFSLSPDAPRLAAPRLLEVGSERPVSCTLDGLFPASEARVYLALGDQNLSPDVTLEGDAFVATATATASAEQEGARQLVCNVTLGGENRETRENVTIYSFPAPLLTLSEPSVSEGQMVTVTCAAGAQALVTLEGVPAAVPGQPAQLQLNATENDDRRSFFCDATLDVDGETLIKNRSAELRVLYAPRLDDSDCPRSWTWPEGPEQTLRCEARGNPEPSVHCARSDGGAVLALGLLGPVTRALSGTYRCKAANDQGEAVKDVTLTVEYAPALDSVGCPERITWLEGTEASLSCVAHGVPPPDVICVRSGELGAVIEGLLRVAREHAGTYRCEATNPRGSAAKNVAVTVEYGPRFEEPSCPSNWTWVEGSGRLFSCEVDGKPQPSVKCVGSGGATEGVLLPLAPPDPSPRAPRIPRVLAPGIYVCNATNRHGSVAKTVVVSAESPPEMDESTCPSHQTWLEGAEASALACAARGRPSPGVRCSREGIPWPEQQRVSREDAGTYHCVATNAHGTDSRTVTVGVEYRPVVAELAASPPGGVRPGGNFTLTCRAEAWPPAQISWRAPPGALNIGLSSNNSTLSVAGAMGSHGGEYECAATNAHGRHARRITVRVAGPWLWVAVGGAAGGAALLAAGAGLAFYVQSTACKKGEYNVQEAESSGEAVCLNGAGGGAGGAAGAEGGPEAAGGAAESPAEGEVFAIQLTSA

The list shows a part of the results.

Compound in the assay: Cc1cn(-c2cc(NC(=O)c3ccc(C)c(Nc4nccc(-c5cccnc5)n4)c3)cc(C(F)(F)F)c2)cn1 [nilotinib]
Put plainly: log2 fold change, soluble protein after heating vs DMSO (PISA); higher = thermal stabilisation; K562 lysate, 10 uM; active = over 0.2 and 3.5 SD of the protein, either way, in both replicates (recomputed). Put shortly: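 The values are log-two fold changes in thermal stability compared with solvent controls and come from duplicates. They were obtained by TMTpro 16plex LC-MS/MS, with channel sums equalised, on the supernatant after 21,000xg for 90 min. That supernatant came from crude K562 extract at 1 mg/mL protein treated with 10 μM compound for 30 min, heated for 3 min across 48°C-58°C, pooled and brought to 0.5% NP-40 at 4°C.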
Take IDH3A (UniProt P50213): the log2 fold change is inactive: 0.009.

Take IGSF3 (UniProt O75054): the log2 fold change is inactive: 0.003. As for ILKAP (UniProt Q9H0C8), the figure is inactive: 0.023; as for ICAM1 (UniProt P05362), inactive: 0.073; as for IDH3B (UniProt O43837), inactive: 0.007. Then IGSF8 (UniProt Q969P0), with inactive: 0.025. For the target ILVBL (UniProt A1L0T0), the log2 fold change was inactive: 0.068. For the target IDE, A0A3B3ISG5, the log2 fold change is inactive: -0.002. As for ILF2 (UniProt Q12905), the log2 fold change was inactive: -0.002.

On to HTATIP2 isoform 3 (UniProt Q9BUP3), for which the log2 fold change is inactive: -0.002.

For the target IGF2BP1 (UniProt Q9NZI8), the log2 fold change is inactive: -0.031. As for HYOU1 (UniProt J3QL06), the figure is inactive: -0.227; as for IMPA1 isoform 3 (UniProt P29218), inactive: -0.001; as for IDH1 (UniProt O75874), inactive: 0.01.

For HUWE1 (UniProt Q7Z6Z7), the log2 fold change is inactive: 0.02.

In the case of HSPA8 (UniProt P11142), the log2 fold change was inactive: -0.01. Then IL10RB (UniProt Q08334), with inactive: 0.003; and IDH3G (UniProt P51553), with inactive: 0.022.

Turning to ICAM5 (UniProt Q9UMF0), the log2 fold change was inactive: -0.016.

On to IBA57 (UniProt Q5T440), for which the log2 fold change is inactive: -0.013. In the case of IGBP1 (UniProt P78318), the log2 fold change was inactive: -0.012. In the case of IFI30 (UniProt P13284), the log2 fold change is inactive: -0.005. Take HYPK (UniProt Q9NX55): the log2 fold change was inactive: 0.074. As for IFITM3 (UniProt Q01628), the figure is inactive: 0.068.
